Experimental data from publication PMC3948108.

The chains behind the UniProt entries cited, without tags or fusion partners. Where a name states a change or a piece, a line headed by the entry shows the natural chain unless it says otherwise.
UniProt P27091: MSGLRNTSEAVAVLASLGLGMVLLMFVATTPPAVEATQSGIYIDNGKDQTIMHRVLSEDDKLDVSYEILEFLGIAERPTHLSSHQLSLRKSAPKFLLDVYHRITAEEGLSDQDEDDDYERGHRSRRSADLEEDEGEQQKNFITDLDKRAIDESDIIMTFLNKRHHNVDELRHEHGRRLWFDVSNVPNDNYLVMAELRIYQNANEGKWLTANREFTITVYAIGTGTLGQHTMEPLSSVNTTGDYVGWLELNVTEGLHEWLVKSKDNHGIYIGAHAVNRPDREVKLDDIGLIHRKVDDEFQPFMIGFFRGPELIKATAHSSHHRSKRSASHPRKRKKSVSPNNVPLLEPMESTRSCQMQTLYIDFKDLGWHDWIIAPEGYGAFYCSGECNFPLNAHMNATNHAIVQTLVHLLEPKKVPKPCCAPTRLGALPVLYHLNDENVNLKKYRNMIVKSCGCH
UniProt P07713: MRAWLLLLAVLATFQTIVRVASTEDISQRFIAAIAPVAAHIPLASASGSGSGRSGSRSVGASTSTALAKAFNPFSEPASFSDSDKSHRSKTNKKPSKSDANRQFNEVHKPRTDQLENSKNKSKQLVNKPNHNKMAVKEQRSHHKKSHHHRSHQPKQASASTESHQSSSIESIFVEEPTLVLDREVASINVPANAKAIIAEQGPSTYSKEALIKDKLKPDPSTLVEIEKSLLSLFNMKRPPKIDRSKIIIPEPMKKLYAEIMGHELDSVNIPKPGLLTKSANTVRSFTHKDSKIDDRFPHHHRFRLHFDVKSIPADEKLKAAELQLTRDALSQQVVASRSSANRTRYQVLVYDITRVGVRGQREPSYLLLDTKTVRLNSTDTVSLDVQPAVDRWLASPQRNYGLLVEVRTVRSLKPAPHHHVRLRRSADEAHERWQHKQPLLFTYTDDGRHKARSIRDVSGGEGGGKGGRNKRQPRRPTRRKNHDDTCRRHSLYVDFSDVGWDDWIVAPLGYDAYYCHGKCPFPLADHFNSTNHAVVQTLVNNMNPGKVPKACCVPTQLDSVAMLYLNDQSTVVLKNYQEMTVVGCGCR

Target: GFP-tagged Gbb (Glass bottom boat) (Drosophila (D. melanogaster)) (UniProt P27091)
Assay: co-IP; lysate of 30 adult midguts coexpressing Dpp-HA and Gbb-GFP (Myo1A^ts, 29°C, 5 days); lysis buffer 50 mM Tris-HCl pH 8.0, 100 mM NaCl, 1% NP40, 10% glycerol, 1.5 mM EDTA; IP with rabbit anti-GFP antibody and protein A beads overnight at 4°C; western blot with anti-GFP and anti-HA

- binding: binds
Substance: HA-tagged Dpp (Decapentaplegic) (from UniProt P07713) (ligand)

These are yes or no findings as the source states them, for the method shown. Binding seen in cells or lysates may run through a third protein. A result given as binding can be weak or reduced; the word gives no strength.
